The values below are quoted from earlier work in paper PMC4047138 (Pharmacological research : the official journal of the …, 2013).

The test system of this series is GnRHR[E^90K]. The following applies: mouse, in vivo; cited from earlier work.

Take `Cc1cc(C)cc(-c2[nH]c3ccc(C(C)(C)C(=O)N4CC5CCC4CC5)cc3c2[C@H](C)CNCCc2ccncc2)c1` [IN3, (2S)-2-[5-[2-(2-azabicyclo[2.2.2]oct-2-yl)-1,1-dimethyl-2-oxoethyl]-2-(3,5-dimethylphenyl)-1H-indol-3-yl]-N-(2-pyridin-4-ylethyl)propan-1-amine]: the “CYP11A1 protein expression in testes (wild-type = 100%)” value is on record as 50%.
